Reference: PMC5472405
No constants are given. Whether binding was seen depends on the method and setting. Some binding calls cover weakened binding; strength is not graded here.

Amino acid sequences for entries named in this document (tags omitted).
UniProt P61073: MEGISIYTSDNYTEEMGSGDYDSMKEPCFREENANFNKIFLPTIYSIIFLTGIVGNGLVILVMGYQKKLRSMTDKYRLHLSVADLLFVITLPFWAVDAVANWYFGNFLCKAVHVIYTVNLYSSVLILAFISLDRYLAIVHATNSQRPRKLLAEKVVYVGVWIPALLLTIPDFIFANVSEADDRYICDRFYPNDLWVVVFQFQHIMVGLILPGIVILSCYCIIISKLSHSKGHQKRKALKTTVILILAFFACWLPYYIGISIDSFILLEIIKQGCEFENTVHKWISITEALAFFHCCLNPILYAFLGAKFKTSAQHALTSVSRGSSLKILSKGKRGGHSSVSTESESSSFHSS

Biological target: CXC chemokine receptor 4 (CXCR4) on lentiviral particles (UniProt P61073)
Experiment: SPR; displacement: sequential injection of increasing concentrations of one chemokine onto CXCR4 particle chips pretreated with a single concentration of the other chemokine; only the binder purified

binding: binds
B1: CXC chemokine ligand 14 (CXCL14), synthetic (ligand, UniProt O95715 35-111)
chain: SKCKCSRKGPKIRYSDVKKLEMKPKYPHCEEKMVIITTKSVSRYRGQEHCLHPKLQSTKRFIKWYNAWNEKRRVYEE
